No constants are given. Whether binding was seen depends on the method and setting. Some entries that bind do so weakly or less than the wild type. For some assays here: Sequences can lack the tags named with a protein.

T1: LAG-3 (lymphocyte-activation gene 3) (human) (UniProt P18627)
T1 sequence (looked up): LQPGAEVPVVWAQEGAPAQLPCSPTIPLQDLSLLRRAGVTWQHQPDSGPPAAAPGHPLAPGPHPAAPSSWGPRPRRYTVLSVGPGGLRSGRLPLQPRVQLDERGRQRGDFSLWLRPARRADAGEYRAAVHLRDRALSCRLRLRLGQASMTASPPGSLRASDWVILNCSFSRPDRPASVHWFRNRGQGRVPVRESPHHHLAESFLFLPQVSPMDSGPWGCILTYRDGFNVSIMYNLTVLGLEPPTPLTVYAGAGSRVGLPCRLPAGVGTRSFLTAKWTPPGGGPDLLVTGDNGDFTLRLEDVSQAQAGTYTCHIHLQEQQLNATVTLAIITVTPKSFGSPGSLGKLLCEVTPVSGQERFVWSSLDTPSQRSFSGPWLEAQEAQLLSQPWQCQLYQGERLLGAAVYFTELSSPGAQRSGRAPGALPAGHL

B1: MA-2 murine anti-LAG-3 monoclonal antibody (whole antibody, murine IgG1 / Ck) (antibody, V domains shown)
VH: EVQLQQSGAELVKPGASVKLSCTASGFNIKDTYMHWVKQRPEQGLEWIGKIDPANGNTKYDPKFQGKATITADTSSNTAYLQLSRLTSEDTAVYYCARDTTVGLDYWGQGTTLTVSS
VL: DIVLTQTPAIMSASLGEKVTMSCRASSSVNYMYWYQQKSDASPKLWIYYTSNLAPGVPARFSGSGSGNSYSLTISSMEGEDAATYYCQQFTSSPSMTFGGGTKLEIKA
B2: MA-4 murine anti-LAG-3 monoclonal antibody (whole antibody, murine IgG1 / Ck) (antibody, V domains shown)
VH: QVKLEESGPGLVQPSQSLSITCTVSAFSLTTYAVHWVRQSPGKGLEWLGVIWSGGSTDYNTAFISRLNITKDNSKSQVFFKMNSLQANDTAIYYCARLDGTFFDYWGQGTTLTVSS
VL: DIVLTQTPAIMSASLGERVTMTCTASSSVSSSYLHWYQQKPGSSPKLWIYSTSNLASGVPARFSGSGSGTSYSLTISSMEAEDAATYYCHQYHRSPPTFGGGTKLEIKA
B3: MA-3 murine anti-LAG-3 monoclonal antibody (whole antibody, murine IgG1 / Ck) (antibody, V domains shown)
VH: EVKLEESGPELVKPGASVKISCKASGYSFTSYYIHWVKQRPGQGLEWIGWIFPGTGNTRYNEKFKGKATLTADTSSSTVYMQLSGLTSEDSAVYFCARIGGRLTGDAMDYWGQGTSVTVSS
VL: DIVLTQSTASLAVSLGQRATISCRASESVDSYGNSFMHWYQQKPGQPPKLLIYLASNLESGVPARFSGSGSRTDFTLTIDPVEADDAATYYCQQNNEDPWTFGGGTKLEIKA
B4: HA-1 humanized anti-LAG-3 monoclonal antibody (human IgG4 / Ck) (antibody, V domains shown)
VH: QVQLVQSGAEVKKPGASVKVSCKASGYTFTDTYMHWVRQAPGQGLEWIGKIDPANGNTKYDPKFQGRATITADTSISTAYMELSRLRSDDTAVYYCARDTTVGLDYWGQGTLVTVSS
VL: DIVITQSPAFLSVTPGEKVTITCRASSSVNYMYWYQQKPDASPKLWIYYTSKLASGVPSRFSGSGSGTDYTFTISSLEAEDAATYYCQQWSSNPHTFGGGTKVEIKR
B5: HA-5 humanized anti-LAG-3 monoclonal antibody (human IgG4 / Ck) (antibody, V domains shown)
VH: QVQLVQSGAEVKKPGASVKVSCKASGYNIKDTYMHWVKQAPGQGLEWIGKIDPANGNTKYDPKFQGKATITADTSISTAYMELSRLRSDDTAVYYCARDTTVGLDYWGQGTLVTVSS
VL: DIVITQSPAFLSVTPGEKVTITCRASSSVNYMYWYQQKPDASPKLWIYYTSKLASGVPARFSGSGSGTSYTFTISSLEAEDAATYYCQQWSSNPHTFGGGTKVEIKR
B6: HA-4 humanized anti-LAG-3 monoclonal antibody (human IgG4 / Ck) (antibody, V domains shown)
VH: QVQLVQSGAEVKKPGASVKVSCKASGYNITDTYMHWVRQAPGQGLEWIGKIDPANGNTKYDPKFQGRATITADTSISTAYMELSRLRSDDTAVYYCARDTTVGLDYWGQGTLVTVSS
VL: DIVITQSPAFLSVTPGEKVTITCRASSSVNYMYWYQQKPDASPKLWIYYTSKLASGVPSRFSGSGSGTDYTFTISSLEAEDAATYYCQQWSSNPHTFGGGTKVEIKR
B7: HA-2 humanized anti-LAG-3 monoclonal antibody (human IgG4 / Ck) (antibody, V domains shown)
VH: QVQLVQSGAEVKKPGASVKVSCKASGYTFTDTYMHWVRQAPGQGLEWIGKIDPANGNTKYDPKFQGRATITADTSISTAYMELSRLRSDDTAVYYCARDTTVGLDYWGQGTLVTVSS
VL: DIVITQSPAFLSVTPGEKVTITCRASSSVNYMYWYQQKPDQAPKLLIYYTSKLASGVPSRFSGSGSGTDYTFTISSLEAEDAATYYCQQWSSNPHTFGGGTKVEIKR
B8: HA-3 humanized anti-LAG-3 monoclonal antibody (human IgG4 / Ck) (antibody, V domains shown)
VH: QVQLVQSGAEVKKPGASVKVSCKASGYNITDTYMHWVRQAPGQGLEWIGKIDPANGNTKYDPKFQGRATITADTSISTAYMELSRLRSDDTAVYYCARDTTVGLDYWGQGTLVTVSS
VL: DIVITQSPAFLSVTPGEKVTITCRASSSVNYMYWYQQKPDQAPKLLIYYTSKLASGVPSRFSGSGSGTDYTFTISSLEAEDAATYYCQQWSSNPHTFGGGTKVEIKR

One assay deals with T1, LAG-3 (lymphocyte-activation gene 3) (human). The experiment in a line: ELISA, coated LAG-3, whole murine antibody. For orientation: An ELISA detects its analyte on a solid surface through an enzyme-linked reagent.
As to B1, the binding result is listed as “binds”. With B2, the binding entry is on record as “binds”.

For B3, the binding result is given as “binds”.

For a further assay the target is unchanged. As to the kind of experiment: ELISA, coated LAG-3, Anti-Human Fc-HRP detection.
Consider B4, for which the binding result was “binds”.

For the molecule B5, the binding entry is recorded as “binds”. As to B6, the binding result was “binds”. Still for that read-out and setting: then B7, with “binds”; and B8, with “binds”.

For the origin of these results see patent US20240025994A1.
